These are yes or no findings as the source states them, for the method shown. Binding seen in cells or lysates may run through a third protein. Some entries that bind do so weakly or less than the wild type.
Molecular target: mitogen-activated protein kinase kinase 1 (MEK1), endogenous in 3T3-L1 adipocytes (mouse (endogenous in 3T3-L1)) (UniProt P31938)
Experiment: co-IP; co-immunoprecipitation of endogenous MEK1 and PPARγ from the nuclear extract of 3T3-L1 adipocytes, control or treated with atRA (100 nM, 48 h) in DM containing CoA

By UniProt entry, the sequences of proteins in these tests, tags left out.
UniProt P37238: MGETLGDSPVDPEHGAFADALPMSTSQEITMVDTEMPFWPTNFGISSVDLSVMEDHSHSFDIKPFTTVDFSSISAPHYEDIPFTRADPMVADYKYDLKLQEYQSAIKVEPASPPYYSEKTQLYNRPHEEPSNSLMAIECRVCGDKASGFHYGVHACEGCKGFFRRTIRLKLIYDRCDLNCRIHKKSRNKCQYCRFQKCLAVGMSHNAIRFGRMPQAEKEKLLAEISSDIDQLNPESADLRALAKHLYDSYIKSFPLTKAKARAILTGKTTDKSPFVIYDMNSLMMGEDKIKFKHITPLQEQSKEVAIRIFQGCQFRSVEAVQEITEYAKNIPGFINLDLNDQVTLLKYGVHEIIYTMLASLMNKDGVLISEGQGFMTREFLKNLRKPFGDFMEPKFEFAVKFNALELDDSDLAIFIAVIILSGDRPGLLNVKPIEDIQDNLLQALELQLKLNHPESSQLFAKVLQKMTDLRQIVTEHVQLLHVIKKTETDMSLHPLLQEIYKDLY

- binding: binds
Substance: peroxisome proliferator-activated receptor gamma (PPARγ), endogenous in 3T3-L1 adipocytes (from UniProt P37238 1-505)

Reference: paper PMC4069188
